No constants are given. Whether binding was seen depends on the method and setting. Binding seen in cells or lysates may run through a third protein. For some assays here: Binding can be weak; no strength is given. For some assays here: Tags and fused reporters may be left off the sequences shown.

Experiment [1] concerns the target T1, Myc3-tagged LZAP (full coding sequence) (human) (UniProt Q96JB5).
T1 sequence: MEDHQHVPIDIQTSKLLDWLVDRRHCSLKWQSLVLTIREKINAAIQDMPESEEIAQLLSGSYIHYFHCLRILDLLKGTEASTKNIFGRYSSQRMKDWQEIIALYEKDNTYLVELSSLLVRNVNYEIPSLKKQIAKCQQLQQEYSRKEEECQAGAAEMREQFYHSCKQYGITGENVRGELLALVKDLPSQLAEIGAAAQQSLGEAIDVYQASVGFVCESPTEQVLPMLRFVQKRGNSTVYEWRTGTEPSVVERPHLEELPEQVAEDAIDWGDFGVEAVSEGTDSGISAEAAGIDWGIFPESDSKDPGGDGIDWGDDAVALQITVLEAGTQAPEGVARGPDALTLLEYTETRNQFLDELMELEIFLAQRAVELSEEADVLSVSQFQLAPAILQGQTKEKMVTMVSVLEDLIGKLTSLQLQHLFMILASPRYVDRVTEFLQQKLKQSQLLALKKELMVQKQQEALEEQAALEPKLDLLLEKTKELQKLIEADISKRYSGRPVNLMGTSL
Kind of experiment: co-IP; U2OS cells transfected with tagged LZAP (whole or truncations) and/or Flag-p38; 0.5% NP-40 lysis buffer; immunoprecipitation with anti-Myc, anti-p38 or anti-Flag, protein A or G sepharose; immunoblot for LZAP, Myc or p38; some experiments after UV. For orientation: In western blotting, separated proteins are transferred to a membrane and probed.

Experiment [2] addresses Flag-tagged p38α (full length). Described as above.
Experiment [3] addresses endogenous p38 (human (endogenous in U2OS and MCF7)). The description is as above.
For experiment [4], the target named is Flag-tagged p38α (full length). The experiment in a line: co-IP; U2OS cells transfected with Flag-p38 and increasing amounts of myc-LZAP, UV treated; immunoprecipitation of Flag-p38; immunoblot for endogenous Wip1.
The target of experiment [5] is Flag-tagged p38α (full length). Kind of experiment: co-IP; U2OS cells transfected with Flag-p38 without myc-LZAP, UV treated; immunoprecipitation of Flag-p38; immunoblot for endogenous Wip1.

Regarding Flag-tagged p38α (full length) (enzyme), in experiment [1], the binding entry is “binds”.

B1: Myc3-tagged LZAP (full coding sequence) (protein, UniProt Q96JB5 1-506)
chain: T1 sequence
For B1, the binding entry in experiment [2] and in experiment [3] was “binds” throughout.

B2: untagged LZAP (protein, UniProt Q96JB5 1-506)
chain: T1 sequence
In the case of B2, the binding result in experiment [2] is “binds”.

B3: Myc3-tagged LZAP truncation αα 1-111 (domain or fragment, UniProt Q96JB5 1-111)
chain: MEDHQHVPIDIQTSKLLDWLVDRRHCSLKWQSLVLTIREKINAAIQDMPESEEIAQLLSGSYIHYFHCLRILDLLKGTEASTKNIFGRYSSQRMKDWQEIIALYEKDNTYL
Regarding B3, the binding result in experiment [2] was “no binding”.

B4: Myc3-tagged LZAP truncation residues 112-358 (domain or fragment, UniProt Q96JB5 112-358)
chain: VELSSLLVRNVNYEIPSLKKQIAKCQQLQQEYSRKEEECQAGAAEMREQFYHSCKQYGITGENVRGELLALVKDLPSQLAEIGAAAQQSLGEAIDVYQASVGFVCESPTEQVLPMLRFVQKRGNSTVYEWRTGTEPSVVERPHLEELPEQVAEDAIDWGDFGVEAVSEGTDSGISAEAAGIDWGIFPESDSKDPGGDGIDWGDDAVALQITVLEAGTQAPEGVARGPDALTLLEYTETRNQFLDELM
Turning to B4, in experiment [2], the binding entry is recorded as “binds”.

B5: Myc3-tagged LZAP truncation αα 201-358 (domain or fragment, UniProt Q96JB5 201-358)
chain: LGEAIDVYQASVGFVCESPTEQVLPMLRFVQKRGNSTVYEWRTGTEPSVVERPHLEELPEQVAEDAIDWGDFGVEAVSEGTDSGISAEAAGIDWGIFPESDSKDPGGDGIDWGDDAVALQITVLEAGTQAPEGVARGPDALTLLEYTETRNQFLDELM
As for B5, in experiment [2], the binding result was “no binding”.

B6: Myc3-tagged LZAP truncation αα 329-506 (domain or fragment, UniProt Q96JB5 329-506)
chain: QAPEGVARGPDALTLLEYTETRNQFLDELMELEIFLAQRAVELSEEADVLSVSQFQLAPAILQGQTKEKMVTMVSVLEDLIGKLTSLQLQHLFMILASPRYVDRVTEFLQQKLKQSQLLALKKELMVQKQQEALEEQAALEPKLDLLLEKTKELQKLIEADISKRYSGRPVNLMGTSL
Take B6: the binding entry in experiment [2] was “binds”.

B7: Myc3-tagged LZAP truncation αα 1-303 (domain or fragment, UniProt Q96JB5 1-303)
chain: MEDHQHVPIDIQTSKLLDWLVDRRHCSLKWQSLVLTIREKINAAIQDMPESEEIAQLLSGSYIHYFHCLRILDLLKGTEASTKNIFGRYSSQRMKDWQEIIALYEKDNTYLVELSSLLVRNVNYEIPSLKKQIAKCQQLQQEYSRKEEECQAGAAEMREQFYHSCKQYGITGENVRGELLALVKDLPSQLAEIGAAAQQSLGEAIDVYQASVGFVCESPTEQVLPMLRFVQKRGNSTVYEWRTGTEPSVVERPHLEELPEQVAEDAIDWGDFGVEAVSEGTDSGISAEAAGIDWGIFPESDSK
Take B7: in experiment [2], the binding result is reported as “binds”.

B8: wild-type p53-induced phosphatase 1 (Wip1), endogenous (enzyme, UniProt O15297 1-605)
chain: MAGLYSLGVSVFSDQGGRKYMEDVTQIVVEPEPTAEEKPSPRRSLSQPLPPRPSPAALPGGEVSGKGPAVAAREARDPLPDAGASPAPSRCCRRRSSVAFFAVCDGHGGREAAQFAREHLWGFIKKQKGFTSSEPAKVCAAIRKGFLACHLAMWKKLAEWPKTMTGLPSTSGTTASVVIIRGMKMYVAHVGDSGVVLGIQDDPKDDFVRAVEVTQDHKPELPKERERIEGLGGSVMNKSGVNRVVWKRPRLTHNGPVRRSTVIDQIPFLAVARALGDLWSYDFFSGEFVVSPEPDTSVHTLDPQKHKYIILGSDGLWNMIPPQDAISMCQDQEEKKYLMGEHGQSCAKMLVNRALGRWRQRMLRADNTSAIVICISPEVDNQGNFTNEDELYLNLTDSPSYNSQETCVMTPSPCSTPPVKSLEEDPWPRVNSKDHIPALVRSNAFSENFLEVSAEIARENVQGVVIPSKDPEPLEENCAKALTLRIHDSLNNSLPIGLVPTNSTNTVMDQKNLKMSTPGQMKAQEIERTPPTNFKRTLEESNSGPLMKKHRRNGLSRSSGAQPASLPTTSQRKNSVKLTMRRRLRGQKKIGNPLLHQHRKTVCVC
Turning to B8, the results for the binding result in experiment [4] and in experiment [5] were “binds” and “no binding (only without expressed LZAP)”, respectively.

These data come from paper PMC3026010.
